Percent effect of library compounds

Protein sequences, listed by entry. Tags and fused reporters are not part of them. Residues count along the entry.
UniProt P9WNZ1, whole entry: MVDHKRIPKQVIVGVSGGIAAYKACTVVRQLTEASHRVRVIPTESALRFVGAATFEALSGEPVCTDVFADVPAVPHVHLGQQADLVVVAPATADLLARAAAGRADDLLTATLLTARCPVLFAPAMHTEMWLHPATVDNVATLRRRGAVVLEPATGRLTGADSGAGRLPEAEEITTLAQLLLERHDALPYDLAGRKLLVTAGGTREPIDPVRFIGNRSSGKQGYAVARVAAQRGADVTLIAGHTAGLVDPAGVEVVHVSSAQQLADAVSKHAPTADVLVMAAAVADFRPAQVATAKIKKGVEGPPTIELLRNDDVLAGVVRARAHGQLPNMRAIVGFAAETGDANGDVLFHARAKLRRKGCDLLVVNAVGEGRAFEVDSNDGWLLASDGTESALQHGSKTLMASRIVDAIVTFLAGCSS
UniProt P9WFT3, whole entry: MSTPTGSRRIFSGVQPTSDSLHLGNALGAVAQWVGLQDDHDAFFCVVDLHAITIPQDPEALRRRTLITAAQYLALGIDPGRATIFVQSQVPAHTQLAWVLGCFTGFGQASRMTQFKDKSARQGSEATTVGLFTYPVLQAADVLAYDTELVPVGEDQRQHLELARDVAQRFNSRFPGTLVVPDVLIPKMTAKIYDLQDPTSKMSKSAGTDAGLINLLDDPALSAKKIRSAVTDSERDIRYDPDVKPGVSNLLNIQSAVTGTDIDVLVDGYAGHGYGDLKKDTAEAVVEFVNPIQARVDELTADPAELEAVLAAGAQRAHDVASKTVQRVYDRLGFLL
UniProt Q4DA54, 1-478: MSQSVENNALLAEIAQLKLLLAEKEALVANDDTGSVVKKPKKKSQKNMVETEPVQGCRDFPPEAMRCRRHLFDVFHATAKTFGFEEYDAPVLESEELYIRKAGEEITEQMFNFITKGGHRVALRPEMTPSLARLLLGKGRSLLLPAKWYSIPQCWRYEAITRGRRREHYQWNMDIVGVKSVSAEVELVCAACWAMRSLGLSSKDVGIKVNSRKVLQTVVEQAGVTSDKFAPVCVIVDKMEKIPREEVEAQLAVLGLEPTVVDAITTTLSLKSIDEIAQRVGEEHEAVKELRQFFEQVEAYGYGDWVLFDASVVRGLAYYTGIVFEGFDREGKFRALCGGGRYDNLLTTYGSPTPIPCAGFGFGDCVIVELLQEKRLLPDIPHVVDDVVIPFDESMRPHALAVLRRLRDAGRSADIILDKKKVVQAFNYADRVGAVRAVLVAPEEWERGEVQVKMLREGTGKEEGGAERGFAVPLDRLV
UniProt Q8IDJ8, 1-583: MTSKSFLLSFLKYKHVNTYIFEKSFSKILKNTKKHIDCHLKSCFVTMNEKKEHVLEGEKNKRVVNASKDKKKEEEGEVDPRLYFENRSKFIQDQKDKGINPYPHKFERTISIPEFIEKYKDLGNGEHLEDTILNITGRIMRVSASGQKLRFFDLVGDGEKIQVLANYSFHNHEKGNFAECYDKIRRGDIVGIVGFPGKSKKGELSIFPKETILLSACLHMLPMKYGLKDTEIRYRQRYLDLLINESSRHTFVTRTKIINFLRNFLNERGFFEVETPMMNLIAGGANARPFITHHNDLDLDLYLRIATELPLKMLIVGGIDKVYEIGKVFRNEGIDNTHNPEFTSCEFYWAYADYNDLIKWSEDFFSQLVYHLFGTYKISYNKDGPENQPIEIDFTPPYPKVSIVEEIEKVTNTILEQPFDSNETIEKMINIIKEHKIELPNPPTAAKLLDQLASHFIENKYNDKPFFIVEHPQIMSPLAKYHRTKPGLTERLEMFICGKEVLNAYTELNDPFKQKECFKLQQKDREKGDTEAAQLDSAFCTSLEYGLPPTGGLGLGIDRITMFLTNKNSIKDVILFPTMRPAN

CoaBC: 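Coenzyme A biosynthesis protein CoaBC, Mycobacterium tuberculosis (UniProt P9WNZ1). Enzyme assay of CoaBC with a phosphate dye (Biomol Green) read at 650 nm. Concentration: 30 µM. Higher reads as stronger inhibition, judged from the few compounds that gave an IC50. Most strong results did not repeat in a second test. Size under these conditions: about 67,000 compounds, about 40 of them at 50% or above in at least one test.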
MtTrpRS: 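Tryptophan-tRNA ligase, Mycobacterium tuberculosis (UniProt P9WFT3). Enzyme assay of tryptophanyl-tRNA synthetase; the read-out is not stated. Compounds at 10 µM. Direction is not recorded; retested compounds ran higher, which suggests that high means inhibition. About 65,000 compounds were tested under these conditions; 0.098% (about 64) showed 50% or more at least once.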
TcHisRS: 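Histidine-tRNA ligase, Trypanosoma cruzi CL Brener (UniProt Q4DA54). Enzyme assay of histidyl-tRNA synthetase; the read-out is not stated. Compounds at 30 µM. Direction is inferred from retests: higher values go with stronger inhibition. About 69,000 compounds were tested under these conditions; 0.045% (about 31) showed 50% or more at least once.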
PfKRS1: 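Enzyme assay of the cytosolic lysyl-tRNA synthetase in 384-well plates, read by luminescence. Target: Lysine-tRNA ligase, Plasmodium falciparum 3D7 (UniProt Q8IDJ8). Compounds at 30 µM. Direction is inferred from only a few compounds that gave an IC50; most scored high, so higher reads as stronger inhibition. About 69,000 compounds were tested under these conditions; 0.071% (about 49) showed 50% or more at least once.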

The filed quantity is “Percent Effect” (%). The record does not define 0% and 100%; most values in the screen are far below 50% and negative numbers occur (in some assays of this library far below -100). The compounds are a random part of those screened. A dash means the value is not listed here; it may have been measured.

compound,CoaBC,MtTrpRS,TcHisRS,PfKRS1
Cc1noc(C2CCCN(C(=O)c3scnc3Cl)C2)n1 (stereo not drawn),1.071,3.99,1.136,-4.098
COc1ccc(/C=C/CN2CCC3(CC2)CN(C)C(=O)O3)cc1,-8.848,-1.71,0.5236,1.298
COCC(=O)NC[C@]12COC[C@H]1CN(c1ncc(F)cn1)C2,0.7246,-10.18,8.387,0.4754
CSCC[C@H](N)C(=O)NCc1cc2n(n1)CCCN(C(=O)N(C)C)C2,2.527,4.402,1.508,7.222
CC(C)(C)c1nnc(CN2CCCC2Cn2cncn2)o1 (stereo not drawn),3.158,-7.086,5.572,1.76
Cc1cc(C)nc(C2CCN(C(=O)c3cncnc3C)C2)n1 (stereo not drawn),8.273,29.74,-3.731,-1.651
CC(NCCCN1CCCN(C)CC1)C(C)(C)C (stereo not drawn),0.2532,-1.568,2.439,0.6448
CN(Cc1cc(Br)cn1C)C(=O)c1cc(Cl)ccn1,-2.981,-1.321,4.615,2.495
CC(NC(=O)CCC1CCCCC1)c1nnc2n1CCC2 (stereo not drawn),1.195,-6.671,2.286,-0.3873
Cc1cnn(CC2CCCN2Cc2coc(-c3ccccc3)n2)c1 (stereo not drawn),-4.904,-0.784,2.479,-4.88
O=C(Cn1nc(-c2ccc(F)cc2)oc1=O)Nc1ccccc1,3.191,-3.459,-0.3802,-1.637
COc1cccc(CCC(=O)N2CCCC(c3nncn3C)C2)c1 (stereo not drawn),-1.513,-4.096,2.616,-0.5999
O=C1NCC2(CCCN(Cc3ccc(F)cc3)C2)Oc2ccccc21 (stereo not drawn),-0.2451,-,12.77,3.568
Cc1ccccc1CN1CCCN(S(=O)(=O)N(C)C2CCCCC2)CC1,-0.319,-3.981,9.804,4.309
Cc1ccsc1C(=O)N1CCc2ncc(Cn3cccn3)n2CC1,2.709,-4.007,2.062,7.475
CCOC(C)C(=O)Nc1ccnn1-c1ccccc1C (stereo not drawn),-16.93,0.5663,6.736,-0.928
CC(=O)c1cccc(-c2c[nH]c(C)n2)c1,1.485,1.867,1.205,-1.212
COC(=O)N1CC2=CC(C)(C)COc3ccc(OC)c(c32)C1,-2.663,-,7.865,5.15
CS(=O)(=O)N1CCCN(c2nccn3cnnc23)CC1,2.427,-1.725,9.392,2.141
Cc1c(C)n2c(SCC(=O)N3CCCCC3)nnc2[nH]c1=O,10.89,0.08333,9.845,4.733
O=C(NC1CC1)N1CCc2ncc(CN3CCOCC3)n2CC1,2.25,-2.502,13.73,7.927
C1CN(CC2CCOCC2)Cc2c(COCC3CC3)nnn2C1,14.16,-3.761,3.279,3.882
CC(C)CN1Cc2nc(N3CCCC3)ncc2C1=O,4.337,6.62,-0.4464,6.162
CC(C)Oc1ncnc2c1CCN(Cc1ccco1)CC2,2.581,-2.881,2.488,5.56
N#Cc1ccccc1Cn1cncn1,2.762,6.862,-2.083,-2.96
CC(=O)N1CCC(N2CCC(c3nc(C)cc(C)n3)C2)CC1 (stereo not drawn),-2.331,-4.052,2.326,0.9727
Cc1nnc(C(NS(=O)(=O)c2cc(F)c(C)cc2F)C(C)C)[nH]1 (stereo not drawn),3.891,7.217,8.333,9.262
c1cnn(CCNCc2csc(-c3ccc4c(c3)OCO4)n2)c1,2.213,-2.328,2.809,2.112
COc1cc(CNC(C)c2ccc(F)c(F)c2)cc2c1OCCO2 (stereo not drawn),4.592,-6.08,6.433,0.87
N#Cc1cccnc1N1CCCC(CO)(Cc2ccc(F)cc2)C1 (stereo not drawn),0.9862,1.939,0,-1.908
CC(C)CN1CC[C@@H]2[C@H](CC1)N(C(=O)c1ccccc1)CCS2(=O)=O,-1.932,-4,3.226,3.303
CCS(=O)(=O)N1CCOC2(CCCN(c3cccc(C#N)c3)C2)C1 (stereo not drawn),4.56,-2.604,3.922,5.107
CC1CS(=O)(=O)CCN1CCCc1ccc(Cl)cc1 (stereo not drawn),-0.6904,-11.58,5.208,6.323
CC(C)Cc1cc(CC2(NCc3ccccc3Cl)COC2)no1,9.492,-2.959,6.522,1.135
CS(=O)(=O)N1C[C@@H](C(=O)Nc2cnccn2)C[C@H]2OCC[C@H]21,-,0.1079,2.532,6.436
CS(=O)(=O)NC[C@@H]1OC[C@H]2CN(C(=O)c3ccccn3)CC[C@H]21,-6.189,-0.8137,7.843,9.732
CN(CC1CC1)c1ccc2ccc(C(=O)NCCc3ccccc3)cn12,4.471,-2.488,51.44,-2.346
COc1ccc(CC(=O)N2CC[C@H](CO)[C@H](O)C2)c(OC)c1,-3.571,-0.243,0,9.736
Cc1nc2n(n1)CC(NCc1ccnc(-c3ccccc3)n1)CC2 (stereo not drawn),3.121,0.7897,5.263,7.245
CCN1CCC2(CC1)c1nc[nH]c1CCN2S(C)(=O)=O,2.061,2.963,6.122,4.011
CCCC1(CO)CCCN(Cc2nccs2)C1 (stereo not drawn),-,2.89,-1.316,4.994
CCSc1ncc(CN2CCN(c3ccc(C#N)cc3)C(=O)C2)cn1,1.46,-2.106,11.52,-0.01209
CC(NC(=O)Nc1ccc(S(C)(=O)=O)cc1)c1ccc2c(c1)CC(=O)N2 (stereo not drawn),8.46,-0.3749,0,-4.918
CC1CN(C(=O)Nc2cc(C(F)(F)F)c[nH]c2=O)CCO1 (stereo not drawn),6.061,-4.129,13.13,6.289

From ChEMBL document CHEMBL3988442, “University of Dundee, Small-Polar-MMV Screening Library” (2021).